PubChem BioAssay AID1224830 – NIAID – 2016

Aim: 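Genes whose knock-down alters the TNF-alpha reporter response to LPS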 (primary screen)
System: human THP-1 monocytic leukaemia cells, TNF dual-luciferase reporter clone, PMA-differentiated to macrophage-like cells
Reagent: siRNA pool against human genes, 50 nM
Time to read-out: LPS for 4 h, given about 3 days after siRNA transfection
Challenge: bacterial LPS (TLR4 ligand), 10 ng/ml
Measurement: 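TNF firefly reporter luminescence divided by renilla, normalised to the plate median, then turned into a robust z-score for each replicate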
Reading the numbers: TNF reporter robust z-score: higher = stronger TNF reporter response to LPS
Call rule: 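a well is active when its z-score exceeds 2.8 or falls below -1.5; control wells carry no call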
The deposit covers about 18,000 reagents; below is a part drawn at random. About 2,900 of them (16%) count as active. 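Calls are made per well; low scores hint the gene aids the LPS response, high scores that it dampens it.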 Entries without a mark were called inactive. Repeated entries: four replicate wells of each siRNA pool.

| gene symbol | TNF reporter robust z-score |
| --- | --- |
| IFI27L2 | -0.54 |
| IFI27L2 | -0.51 |
| IFI27L2 | -1.09 |
| IFI27L2 | -0.77 |
| LIPG | -0.38 |
| LIPG | 0.9 |
| LIPG | 0.01 |
| LIPG | 0.54 |
| ZNF366 | 1.06 |
| ZNF366 | 2.47 |
| ZNF366 | 0.94 |
| ZNF366 | 1.23 |
| NPAS2 | 1.2 |
| NPAS2 | 1.43 |
| NPAS2 | 0.78 |
| NPAS2 | -0.25 |

Reformatted: results already given.
{"gene symbol": "NPAS2", "TNF reporter robust z-score": 1.2}
{"gene symbol": "NPAS2", "TNF reporter robust z-score": 1.43}
{"gene symbol": "NPAS2", "TNF reporter robust z-score": 0.78}
{"gene symbol": "NPAS2", "TNF reporter robust z-score": -0.25}

The listing continues.
| gene symbol | TNF reporter robust z-score |
| --- | --- |
| CDK20 | -0.98 |
| CDK20 | -1.02 |
| CDK20 | -1.38 |
| CDK20 | -0.95 |
| EIF1 | -1.27 |
| EIF1 | -1.44 |
| EIF1 | -1.72 (active) |
| EIF1 | -1.45 |
| ZNF577 | 1.25 |
| ZNF577 | 0.27 |
| ZNF577 | 0.09 |
| ZNF577 | -0.06 |
| C5orf46 | -0.1 |
| C5orf46 | 0.95 |
| C5orf46 | 1.08 |
| C5orf46 | 1.3 |
| SLC16A9 | -0.66 |
| SLC16A9 | 0.89 |
| SLC16A9 | 0.78 |
| SLC16A9 | 0.37 |
| PROK1 | -1.6 (active) |
| PROK1 | -1.24 |
| PROK1 | -1.36 |
| PROK1 | -0.91 |
| UBB | -2.02 (active) |
| UBB | -1.9 (active) |
| UBB | -0.94 |
| UBB | -1.44 |
| PKM | 1.81 |
| PKM | 5.33 (active) |
| PKM | 1.34 |
| PKM | 1.27 |
